The results in this text go back to publication PMC3631182.

The chains behind the UniProt entries cited, without tags or fusion partners.
UniProt Q8IN94: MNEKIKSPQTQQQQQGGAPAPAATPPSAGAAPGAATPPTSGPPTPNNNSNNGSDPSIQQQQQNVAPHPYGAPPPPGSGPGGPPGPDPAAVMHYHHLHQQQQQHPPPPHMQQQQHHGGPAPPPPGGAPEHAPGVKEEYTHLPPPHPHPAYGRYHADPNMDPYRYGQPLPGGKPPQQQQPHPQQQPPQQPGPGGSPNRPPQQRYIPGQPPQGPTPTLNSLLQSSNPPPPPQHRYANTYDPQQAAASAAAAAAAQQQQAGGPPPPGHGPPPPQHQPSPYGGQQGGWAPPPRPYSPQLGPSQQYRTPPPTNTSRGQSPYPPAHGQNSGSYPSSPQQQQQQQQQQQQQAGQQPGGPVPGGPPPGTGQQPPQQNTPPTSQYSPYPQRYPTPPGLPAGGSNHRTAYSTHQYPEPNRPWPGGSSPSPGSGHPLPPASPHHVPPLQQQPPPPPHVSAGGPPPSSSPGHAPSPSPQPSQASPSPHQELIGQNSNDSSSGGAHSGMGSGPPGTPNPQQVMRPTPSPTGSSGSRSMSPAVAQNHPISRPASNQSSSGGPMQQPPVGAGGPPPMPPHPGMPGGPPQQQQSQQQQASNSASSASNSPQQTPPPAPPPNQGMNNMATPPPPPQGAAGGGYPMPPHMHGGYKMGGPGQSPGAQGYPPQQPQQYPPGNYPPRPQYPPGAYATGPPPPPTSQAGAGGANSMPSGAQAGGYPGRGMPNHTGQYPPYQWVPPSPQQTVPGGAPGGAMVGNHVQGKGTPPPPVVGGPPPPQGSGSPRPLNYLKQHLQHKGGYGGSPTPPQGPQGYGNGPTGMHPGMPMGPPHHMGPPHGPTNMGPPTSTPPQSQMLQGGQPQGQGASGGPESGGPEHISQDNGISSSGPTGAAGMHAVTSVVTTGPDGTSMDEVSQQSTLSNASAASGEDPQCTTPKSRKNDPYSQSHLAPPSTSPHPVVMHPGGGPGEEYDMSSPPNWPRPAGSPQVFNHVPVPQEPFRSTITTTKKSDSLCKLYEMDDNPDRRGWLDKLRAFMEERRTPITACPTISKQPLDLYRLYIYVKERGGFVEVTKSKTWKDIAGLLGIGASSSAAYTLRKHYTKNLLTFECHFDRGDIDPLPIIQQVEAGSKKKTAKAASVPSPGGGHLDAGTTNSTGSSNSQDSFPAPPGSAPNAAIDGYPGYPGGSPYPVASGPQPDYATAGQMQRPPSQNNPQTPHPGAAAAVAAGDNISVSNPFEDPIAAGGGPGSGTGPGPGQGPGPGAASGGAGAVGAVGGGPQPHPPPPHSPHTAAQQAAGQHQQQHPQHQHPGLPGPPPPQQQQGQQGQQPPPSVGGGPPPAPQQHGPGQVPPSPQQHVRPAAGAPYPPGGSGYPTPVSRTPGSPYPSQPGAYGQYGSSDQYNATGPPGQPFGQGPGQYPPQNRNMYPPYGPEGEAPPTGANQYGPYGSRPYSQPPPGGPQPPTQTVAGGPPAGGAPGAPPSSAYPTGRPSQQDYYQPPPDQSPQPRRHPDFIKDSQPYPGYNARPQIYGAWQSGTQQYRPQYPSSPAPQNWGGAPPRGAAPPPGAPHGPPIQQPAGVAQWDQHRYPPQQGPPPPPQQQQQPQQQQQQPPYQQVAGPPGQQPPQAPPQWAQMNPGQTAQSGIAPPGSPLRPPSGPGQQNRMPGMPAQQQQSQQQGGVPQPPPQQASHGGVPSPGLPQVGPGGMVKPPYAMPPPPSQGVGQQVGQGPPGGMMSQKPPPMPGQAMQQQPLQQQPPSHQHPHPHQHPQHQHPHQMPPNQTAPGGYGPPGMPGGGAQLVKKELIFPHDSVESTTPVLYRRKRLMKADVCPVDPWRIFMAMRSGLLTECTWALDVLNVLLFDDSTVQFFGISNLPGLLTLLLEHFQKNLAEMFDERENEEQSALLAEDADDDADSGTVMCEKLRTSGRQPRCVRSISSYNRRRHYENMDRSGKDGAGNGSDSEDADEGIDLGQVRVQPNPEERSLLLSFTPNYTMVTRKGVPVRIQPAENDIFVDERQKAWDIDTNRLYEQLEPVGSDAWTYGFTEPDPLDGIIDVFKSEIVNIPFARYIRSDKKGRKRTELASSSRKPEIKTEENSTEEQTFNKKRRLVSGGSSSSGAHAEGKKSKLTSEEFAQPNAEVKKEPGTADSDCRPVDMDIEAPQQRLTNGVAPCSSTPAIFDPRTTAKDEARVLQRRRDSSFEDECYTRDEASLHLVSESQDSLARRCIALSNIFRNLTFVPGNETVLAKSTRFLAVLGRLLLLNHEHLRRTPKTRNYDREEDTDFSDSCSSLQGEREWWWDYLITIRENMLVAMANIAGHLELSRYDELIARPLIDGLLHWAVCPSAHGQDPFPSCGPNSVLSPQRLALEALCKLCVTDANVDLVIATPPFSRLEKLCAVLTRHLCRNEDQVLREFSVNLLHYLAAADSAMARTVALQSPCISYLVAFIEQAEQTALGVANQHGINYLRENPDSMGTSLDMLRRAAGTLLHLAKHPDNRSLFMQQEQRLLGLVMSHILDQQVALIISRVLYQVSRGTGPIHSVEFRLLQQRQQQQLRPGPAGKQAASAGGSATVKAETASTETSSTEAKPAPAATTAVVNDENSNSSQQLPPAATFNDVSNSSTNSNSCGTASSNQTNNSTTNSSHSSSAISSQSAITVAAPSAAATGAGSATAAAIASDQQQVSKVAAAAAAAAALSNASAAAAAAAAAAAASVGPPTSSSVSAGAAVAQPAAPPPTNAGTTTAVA
UniProt Q7KNM2: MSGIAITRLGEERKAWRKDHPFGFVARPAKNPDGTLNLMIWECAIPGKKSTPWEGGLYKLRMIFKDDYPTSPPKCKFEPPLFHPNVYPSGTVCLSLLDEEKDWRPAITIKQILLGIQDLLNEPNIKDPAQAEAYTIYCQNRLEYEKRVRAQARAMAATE

These are yes or no findings as the source states them, for the method shown. In cells and extracts the contact can be indirect.

Assay [1] has as its target Osa, subunit of the BRM chromatin remodeling complex, native protein of Drosophila embryos (Drosophila melanogaster (endogenous in Ore-R embryos)) (UniProt Q8IN94). The experiment in a line: co-IP; immunoprecipitation with Osa antibodies (1 µg) from total protein extract of 3-21 hour embryos (3.7 mg); two preclearing steps, Buffer PD; irrelevant antibody as mock.
Assay [2] has as its target GST-Ubc9 fusion protein (Drosophila Ubc9) (Drosophila melanogaster) (UniProt Q7KNM2). The assay is described as follows: pull-down; 10 µg GST-Ubc9 as bait, 500 µg soluble nuclear fraction from 3-21 hour embryos; extensive stringent washing; Western with TnaA_(XSPRING) antibody; only the target purified.

B1: Cdk7, native protein of Drosophila embryos (protein, UniProt Q24216 1-353)
chain: MLPNANDKTERYAKLSFLGEGQFATVYKARDTVTNQIVAVKKIKKGSREDARDGINRTALREIKILQELQHENIIGLVDVFGQLSNVSLVFDFMDTDLEVIIKDNKIILTQANIKAYAIMTLKGLEYLHLNWILHRDLKPNNLLVNSDGILKIGDFGLAKSFGSPNRIYTHHVVTRWYRSPELLFGARQYGTGVDMWAVGCILAELMLRVPFMPGDSDLDQLTRIFSTLGTPTEAEWPHLSKLHDYLQFRNFPGTPLDNIFTAAGNDLIHLMQRLFAMNPLRRVSCREALSMPYFANKPAPTVGPKLPMPSAILAAKEGANPQTGDTKPALKRKLVETTVRGNGLAQKKRLQF
Turning to B1, the binding entry in assay [1] and in assay [2] was “no binding” throughout.
